Experimental findings from publication PMC4345935 are described below.

By UniProt entry, the sequences of proteins in these tests, tags left out.
UniProt P49454: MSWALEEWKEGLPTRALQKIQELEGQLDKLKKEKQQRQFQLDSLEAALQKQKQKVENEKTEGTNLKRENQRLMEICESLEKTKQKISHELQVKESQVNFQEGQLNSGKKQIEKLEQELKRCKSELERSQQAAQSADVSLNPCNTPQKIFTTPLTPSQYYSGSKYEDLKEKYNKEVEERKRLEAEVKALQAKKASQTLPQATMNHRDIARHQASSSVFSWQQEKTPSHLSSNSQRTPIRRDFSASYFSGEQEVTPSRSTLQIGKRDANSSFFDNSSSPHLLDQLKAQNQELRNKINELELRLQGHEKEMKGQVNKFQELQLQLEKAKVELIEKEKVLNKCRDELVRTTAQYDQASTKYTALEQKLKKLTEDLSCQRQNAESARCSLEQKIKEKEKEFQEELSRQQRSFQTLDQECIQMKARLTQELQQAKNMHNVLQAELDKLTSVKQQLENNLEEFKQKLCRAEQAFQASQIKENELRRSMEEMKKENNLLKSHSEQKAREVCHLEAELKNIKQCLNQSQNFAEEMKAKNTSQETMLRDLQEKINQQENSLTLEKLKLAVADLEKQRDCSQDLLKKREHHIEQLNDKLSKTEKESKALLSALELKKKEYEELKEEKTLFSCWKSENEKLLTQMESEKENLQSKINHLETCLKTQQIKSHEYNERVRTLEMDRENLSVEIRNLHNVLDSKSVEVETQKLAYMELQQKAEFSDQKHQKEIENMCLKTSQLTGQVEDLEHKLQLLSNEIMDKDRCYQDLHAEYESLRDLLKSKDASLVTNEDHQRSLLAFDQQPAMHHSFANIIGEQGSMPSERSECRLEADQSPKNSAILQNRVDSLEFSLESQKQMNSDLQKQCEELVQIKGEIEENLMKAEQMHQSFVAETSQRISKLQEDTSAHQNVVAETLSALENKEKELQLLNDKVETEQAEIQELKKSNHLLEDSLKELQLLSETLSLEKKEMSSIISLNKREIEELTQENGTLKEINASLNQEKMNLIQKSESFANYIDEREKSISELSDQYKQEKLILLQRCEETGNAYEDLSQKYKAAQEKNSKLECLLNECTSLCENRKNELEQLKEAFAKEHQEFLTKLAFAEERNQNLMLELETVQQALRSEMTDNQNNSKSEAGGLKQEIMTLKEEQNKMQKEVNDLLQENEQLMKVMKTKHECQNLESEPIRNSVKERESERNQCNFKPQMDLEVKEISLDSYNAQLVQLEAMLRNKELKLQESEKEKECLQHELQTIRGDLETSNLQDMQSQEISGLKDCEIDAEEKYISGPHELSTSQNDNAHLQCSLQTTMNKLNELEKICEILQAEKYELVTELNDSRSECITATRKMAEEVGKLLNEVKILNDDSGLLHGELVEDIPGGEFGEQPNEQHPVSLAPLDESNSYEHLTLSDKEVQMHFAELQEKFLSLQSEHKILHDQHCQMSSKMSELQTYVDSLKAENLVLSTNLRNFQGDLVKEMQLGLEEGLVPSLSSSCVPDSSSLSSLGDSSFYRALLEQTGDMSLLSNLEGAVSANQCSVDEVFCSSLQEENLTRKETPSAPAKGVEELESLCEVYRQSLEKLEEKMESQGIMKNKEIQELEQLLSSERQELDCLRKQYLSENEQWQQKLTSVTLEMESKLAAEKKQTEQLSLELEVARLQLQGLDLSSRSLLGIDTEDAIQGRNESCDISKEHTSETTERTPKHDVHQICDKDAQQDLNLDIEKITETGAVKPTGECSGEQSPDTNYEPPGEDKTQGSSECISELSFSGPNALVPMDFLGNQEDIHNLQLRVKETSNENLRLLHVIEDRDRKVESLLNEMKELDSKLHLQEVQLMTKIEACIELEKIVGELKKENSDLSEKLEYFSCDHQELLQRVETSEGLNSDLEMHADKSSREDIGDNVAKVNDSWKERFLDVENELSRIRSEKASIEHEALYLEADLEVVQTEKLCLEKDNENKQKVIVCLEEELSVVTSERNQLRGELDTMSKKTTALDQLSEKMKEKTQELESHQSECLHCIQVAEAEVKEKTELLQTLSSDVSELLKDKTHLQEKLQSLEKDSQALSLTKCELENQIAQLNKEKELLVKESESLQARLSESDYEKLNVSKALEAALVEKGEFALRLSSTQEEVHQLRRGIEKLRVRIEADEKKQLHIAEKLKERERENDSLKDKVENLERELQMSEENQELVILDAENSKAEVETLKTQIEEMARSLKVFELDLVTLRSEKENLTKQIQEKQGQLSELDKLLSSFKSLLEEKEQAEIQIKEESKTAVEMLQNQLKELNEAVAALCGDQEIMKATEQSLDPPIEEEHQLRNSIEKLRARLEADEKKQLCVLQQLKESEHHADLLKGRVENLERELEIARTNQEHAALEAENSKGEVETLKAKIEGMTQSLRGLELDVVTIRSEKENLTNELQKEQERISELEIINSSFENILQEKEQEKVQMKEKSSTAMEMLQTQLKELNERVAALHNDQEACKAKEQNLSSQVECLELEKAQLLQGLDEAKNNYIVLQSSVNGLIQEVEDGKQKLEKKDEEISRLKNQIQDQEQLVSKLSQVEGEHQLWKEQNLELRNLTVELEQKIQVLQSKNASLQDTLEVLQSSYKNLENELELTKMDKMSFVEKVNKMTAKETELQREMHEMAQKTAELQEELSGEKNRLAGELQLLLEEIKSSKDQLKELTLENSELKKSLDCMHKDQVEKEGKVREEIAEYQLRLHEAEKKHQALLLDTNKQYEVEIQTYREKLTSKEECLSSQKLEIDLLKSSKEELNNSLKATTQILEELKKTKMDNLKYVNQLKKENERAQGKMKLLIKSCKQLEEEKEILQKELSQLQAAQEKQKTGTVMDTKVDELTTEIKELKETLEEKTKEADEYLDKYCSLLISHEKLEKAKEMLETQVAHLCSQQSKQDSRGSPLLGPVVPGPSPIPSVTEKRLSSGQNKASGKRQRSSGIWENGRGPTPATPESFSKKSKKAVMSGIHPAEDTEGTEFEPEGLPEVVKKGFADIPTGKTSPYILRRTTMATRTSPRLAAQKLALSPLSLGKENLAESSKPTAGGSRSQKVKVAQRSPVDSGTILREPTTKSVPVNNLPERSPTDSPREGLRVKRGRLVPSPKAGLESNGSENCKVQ
UniProt Q14980: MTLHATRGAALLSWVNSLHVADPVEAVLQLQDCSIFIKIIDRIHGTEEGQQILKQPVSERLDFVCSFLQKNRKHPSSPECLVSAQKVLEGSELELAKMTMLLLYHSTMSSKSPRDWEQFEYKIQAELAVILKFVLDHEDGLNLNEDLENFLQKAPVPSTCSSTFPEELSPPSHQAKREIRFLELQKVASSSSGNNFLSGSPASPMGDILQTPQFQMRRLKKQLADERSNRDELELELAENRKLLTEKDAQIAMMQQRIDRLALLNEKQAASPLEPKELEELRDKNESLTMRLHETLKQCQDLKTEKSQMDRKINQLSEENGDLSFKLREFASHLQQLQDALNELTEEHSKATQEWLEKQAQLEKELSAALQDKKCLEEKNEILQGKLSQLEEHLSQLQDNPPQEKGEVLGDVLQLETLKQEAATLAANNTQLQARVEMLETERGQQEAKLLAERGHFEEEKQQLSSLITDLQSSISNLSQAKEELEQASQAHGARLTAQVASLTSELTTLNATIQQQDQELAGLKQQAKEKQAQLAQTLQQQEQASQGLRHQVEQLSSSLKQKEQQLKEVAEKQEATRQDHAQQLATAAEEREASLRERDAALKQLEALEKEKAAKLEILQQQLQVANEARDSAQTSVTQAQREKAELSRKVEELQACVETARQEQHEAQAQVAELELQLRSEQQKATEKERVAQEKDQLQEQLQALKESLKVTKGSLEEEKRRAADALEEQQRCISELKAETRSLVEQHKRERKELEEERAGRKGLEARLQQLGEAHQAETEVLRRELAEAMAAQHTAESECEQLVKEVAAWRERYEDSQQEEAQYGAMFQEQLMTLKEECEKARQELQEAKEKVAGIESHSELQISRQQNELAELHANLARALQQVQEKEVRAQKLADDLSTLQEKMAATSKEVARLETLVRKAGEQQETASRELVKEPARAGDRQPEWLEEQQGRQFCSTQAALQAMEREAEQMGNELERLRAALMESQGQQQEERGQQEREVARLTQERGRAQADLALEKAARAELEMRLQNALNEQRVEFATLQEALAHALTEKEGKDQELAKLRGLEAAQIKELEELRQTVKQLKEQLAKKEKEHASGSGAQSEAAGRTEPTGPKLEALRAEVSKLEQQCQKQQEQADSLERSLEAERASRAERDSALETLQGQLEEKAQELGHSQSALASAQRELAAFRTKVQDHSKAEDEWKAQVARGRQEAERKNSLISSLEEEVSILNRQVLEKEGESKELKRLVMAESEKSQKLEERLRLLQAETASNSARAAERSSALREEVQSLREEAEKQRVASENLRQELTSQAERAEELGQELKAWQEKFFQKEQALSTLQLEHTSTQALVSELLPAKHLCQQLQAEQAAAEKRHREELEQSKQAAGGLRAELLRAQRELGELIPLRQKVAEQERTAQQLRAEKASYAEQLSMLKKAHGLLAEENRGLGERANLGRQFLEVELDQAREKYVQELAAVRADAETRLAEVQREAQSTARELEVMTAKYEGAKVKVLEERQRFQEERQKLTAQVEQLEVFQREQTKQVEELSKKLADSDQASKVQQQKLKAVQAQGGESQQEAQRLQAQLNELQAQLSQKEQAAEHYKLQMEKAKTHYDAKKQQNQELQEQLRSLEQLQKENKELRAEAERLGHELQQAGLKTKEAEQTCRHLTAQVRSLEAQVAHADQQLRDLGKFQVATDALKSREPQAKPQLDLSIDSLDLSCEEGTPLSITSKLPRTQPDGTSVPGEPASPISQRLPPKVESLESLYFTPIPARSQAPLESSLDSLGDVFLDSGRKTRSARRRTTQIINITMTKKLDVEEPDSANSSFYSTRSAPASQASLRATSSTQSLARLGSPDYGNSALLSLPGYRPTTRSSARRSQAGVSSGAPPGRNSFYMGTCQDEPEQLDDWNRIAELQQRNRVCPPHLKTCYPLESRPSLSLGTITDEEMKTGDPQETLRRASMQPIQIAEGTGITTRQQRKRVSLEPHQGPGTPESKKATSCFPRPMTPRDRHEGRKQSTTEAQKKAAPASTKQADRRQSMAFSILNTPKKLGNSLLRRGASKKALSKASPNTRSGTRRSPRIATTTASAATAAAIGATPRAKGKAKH
UniProt Q8TEW0: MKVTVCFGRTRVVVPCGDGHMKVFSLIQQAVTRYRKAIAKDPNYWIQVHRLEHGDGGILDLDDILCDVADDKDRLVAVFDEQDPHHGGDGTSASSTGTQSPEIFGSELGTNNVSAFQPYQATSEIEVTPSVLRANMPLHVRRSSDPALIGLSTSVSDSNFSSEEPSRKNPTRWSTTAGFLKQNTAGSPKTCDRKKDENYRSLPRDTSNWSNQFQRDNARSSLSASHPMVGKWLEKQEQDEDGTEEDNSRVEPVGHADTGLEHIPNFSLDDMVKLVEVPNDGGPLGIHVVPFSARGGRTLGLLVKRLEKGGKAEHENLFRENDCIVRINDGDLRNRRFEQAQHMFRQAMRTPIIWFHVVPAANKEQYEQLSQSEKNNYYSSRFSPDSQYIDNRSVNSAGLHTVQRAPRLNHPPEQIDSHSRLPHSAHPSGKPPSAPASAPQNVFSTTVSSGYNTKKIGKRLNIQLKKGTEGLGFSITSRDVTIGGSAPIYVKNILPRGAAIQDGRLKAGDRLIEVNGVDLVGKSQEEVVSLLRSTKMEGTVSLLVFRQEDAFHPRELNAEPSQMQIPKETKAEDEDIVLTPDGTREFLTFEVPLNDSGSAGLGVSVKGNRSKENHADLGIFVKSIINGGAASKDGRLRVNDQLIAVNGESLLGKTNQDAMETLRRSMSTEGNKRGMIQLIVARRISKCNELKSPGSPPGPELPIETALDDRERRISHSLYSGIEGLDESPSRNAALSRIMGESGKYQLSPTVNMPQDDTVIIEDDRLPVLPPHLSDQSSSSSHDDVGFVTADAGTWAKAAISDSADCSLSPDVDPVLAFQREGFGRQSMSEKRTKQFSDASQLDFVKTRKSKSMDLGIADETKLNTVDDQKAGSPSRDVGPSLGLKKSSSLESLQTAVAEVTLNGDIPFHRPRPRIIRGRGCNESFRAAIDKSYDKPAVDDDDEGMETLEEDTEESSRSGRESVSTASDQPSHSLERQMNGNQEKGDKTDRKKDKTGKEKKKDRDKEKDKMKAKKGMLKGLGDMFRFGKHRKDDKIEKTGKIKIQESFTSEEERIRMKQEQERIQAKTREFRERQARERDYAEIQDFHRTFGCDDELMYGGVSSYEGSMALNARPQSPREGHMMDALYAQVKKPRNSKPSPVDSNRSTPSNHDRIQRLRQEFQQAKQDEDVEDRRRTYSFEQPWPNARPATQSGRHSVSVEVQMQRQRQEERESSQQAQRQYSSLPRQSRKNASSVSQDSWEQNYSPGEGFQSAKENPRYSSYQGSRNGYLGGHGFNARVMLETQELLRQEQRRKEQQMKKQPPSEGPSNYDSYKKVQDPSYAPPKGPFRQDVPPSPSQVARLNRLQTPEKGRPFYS

These are yes or no findings as the source states them, for the method shown. Binding seen in cells or lysates may run through a third protein. Some entries that bind do so weakly or less than the wild type.

The assay addresses CENP-F (co-immunoprecipitation of supplementary figure S8) (UniProt P49454). Briefly: co-IP; co-immunoprecipitation shown in online supplementary figure S8; cells and antibody not given.
For NuMA (from UniProt Q14980 1-2115), the binding entry is given as “binds”.

Consider Par 3 (from UniProt Q8TEW0 1-1356), for which the binding result was “binds”.

As for “p150 Glued dynactin (from UniProt Q14203-1 1-1278)”, the binding result is “binds”.
